Laboratory results reported in publication PMC12147964.
Results are given in words; binding and its absence hold for the method and conditions named. Binding seen in cells or lysates may run through a third protein. Some results given as binding are weak or reduced against the parent protein; the word gives no strength. For part of these data: Tags and fused reporters may be left off the sequences shown. Values belong to the molecule of their own block, whether it stands above or below them.

Amino acid sequences for entries named in this document (tags omitted).
UniProt P49023: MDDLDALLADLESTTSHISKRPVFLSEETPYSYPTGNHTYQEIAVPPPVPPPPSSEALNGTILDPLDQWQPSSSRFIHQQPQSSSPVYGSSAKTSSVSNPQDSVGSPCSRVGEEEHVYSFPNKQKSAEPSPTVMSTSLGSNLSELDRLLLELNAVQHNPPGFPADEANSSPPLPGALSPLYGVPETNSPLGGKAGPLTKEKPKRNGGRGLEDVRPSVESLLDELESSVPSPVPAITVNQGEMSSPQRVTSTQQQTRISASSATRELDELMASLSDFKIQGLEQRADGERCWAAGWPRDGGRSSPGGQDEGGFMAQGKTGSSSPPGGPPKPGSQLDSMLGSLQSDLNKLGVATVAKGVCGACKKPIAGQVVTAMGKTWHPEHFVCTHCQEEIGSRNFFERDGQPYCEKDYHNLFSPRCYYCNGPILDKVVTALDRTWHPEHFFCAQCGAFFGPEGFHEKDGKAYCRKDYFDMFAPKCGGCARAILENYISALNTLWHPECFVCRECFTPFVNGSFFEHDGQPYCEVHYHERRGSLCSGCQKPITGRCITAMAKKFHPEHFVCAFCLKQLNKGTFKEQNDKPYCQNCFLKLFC

Assays:
[1] = target: T1, GIT ArfGAP2 (human (endogenous in immortalized human podocytes CIHP-1)) (UniProt Q14161); test: co-IP; lysates of cultured human podocytes immunoprecipitated with anti-GIT2 antibody, immunoblot for paxillin; rabbit IgG as negative control; also from cells treated with 12.5 µM blebbistatin, NSC23766 or vehicle for 16 hours (blebbistatin markedly reduced, NSC23766 did not affect the co-precipitation)
T1 sequence: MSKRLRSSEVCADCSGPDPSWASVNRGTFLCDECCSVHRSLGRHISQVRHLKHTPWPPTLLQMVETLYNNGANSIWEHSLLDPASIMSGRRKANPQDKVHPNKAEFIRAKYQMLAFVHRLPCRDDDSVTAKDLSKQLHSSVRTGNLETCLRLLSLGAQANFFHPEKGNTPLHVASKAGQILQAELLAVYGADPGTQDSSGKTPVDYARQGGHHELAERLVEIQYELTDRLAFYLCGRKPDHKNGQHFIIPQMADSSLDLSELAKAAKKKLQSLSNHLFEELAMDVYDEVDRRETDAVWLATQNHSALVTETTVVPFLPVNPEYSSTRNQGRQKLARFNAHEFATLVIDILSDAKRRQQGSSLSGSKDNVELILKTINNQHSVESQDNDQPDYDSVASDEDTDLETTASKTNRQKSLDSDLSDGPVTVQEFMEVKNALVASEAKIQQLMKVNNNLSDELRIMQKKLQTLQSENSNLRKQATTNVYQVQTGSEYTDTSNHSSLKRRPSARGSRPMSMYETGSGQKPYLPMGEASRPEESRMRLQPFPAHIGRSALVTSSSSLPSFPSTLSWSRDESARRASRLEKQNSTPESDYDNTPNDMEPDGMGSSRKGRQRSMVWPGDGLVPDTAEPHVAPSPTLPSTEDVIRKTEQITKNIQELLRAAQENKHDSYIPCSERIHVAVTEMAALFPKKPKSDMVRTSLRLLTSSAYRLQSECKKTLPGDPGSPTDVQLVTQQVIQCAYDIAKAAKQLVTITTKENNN

[2] = target: T2, pEBG-tagged PTP1B-D181A (substrate-trapping mutant) (UniProt P18031); test: pull-down; substrate-trapping assay: HEK293 cells transiently transfected with an EGF receptor and pEBG-tagged phosphatase, 100 ng/ml EGF overnight, lysates pulled down by GST, immunoblot for pY410 p130Cas
T2 sequence: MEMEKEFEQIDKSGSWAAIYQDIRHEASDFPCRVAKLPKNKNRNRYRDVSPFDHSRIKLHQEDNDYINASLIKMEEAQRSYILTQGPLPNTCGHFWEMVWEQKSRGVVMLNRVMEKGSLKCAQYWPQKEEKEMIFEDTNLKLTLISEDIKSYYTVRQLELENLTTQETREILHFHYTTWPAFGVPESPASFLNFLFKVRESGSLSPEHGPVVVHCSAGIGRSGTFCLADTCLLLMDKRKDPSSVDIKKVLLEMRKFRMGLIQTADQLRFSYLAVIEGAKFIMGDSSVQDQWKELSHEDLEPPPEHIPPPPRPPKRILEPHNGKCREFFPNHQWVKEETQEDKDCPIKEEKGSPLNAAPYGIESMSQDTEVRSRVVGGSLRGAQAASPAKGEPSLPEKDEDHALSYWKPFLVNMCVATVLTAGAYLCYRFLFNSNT

[3] = target: T3, pEBG-tagged PTP-PEST-C231S (substrate-trapping mutant), Q05209; test: as above; settings: remark: other sources report otherwise
T3 chain: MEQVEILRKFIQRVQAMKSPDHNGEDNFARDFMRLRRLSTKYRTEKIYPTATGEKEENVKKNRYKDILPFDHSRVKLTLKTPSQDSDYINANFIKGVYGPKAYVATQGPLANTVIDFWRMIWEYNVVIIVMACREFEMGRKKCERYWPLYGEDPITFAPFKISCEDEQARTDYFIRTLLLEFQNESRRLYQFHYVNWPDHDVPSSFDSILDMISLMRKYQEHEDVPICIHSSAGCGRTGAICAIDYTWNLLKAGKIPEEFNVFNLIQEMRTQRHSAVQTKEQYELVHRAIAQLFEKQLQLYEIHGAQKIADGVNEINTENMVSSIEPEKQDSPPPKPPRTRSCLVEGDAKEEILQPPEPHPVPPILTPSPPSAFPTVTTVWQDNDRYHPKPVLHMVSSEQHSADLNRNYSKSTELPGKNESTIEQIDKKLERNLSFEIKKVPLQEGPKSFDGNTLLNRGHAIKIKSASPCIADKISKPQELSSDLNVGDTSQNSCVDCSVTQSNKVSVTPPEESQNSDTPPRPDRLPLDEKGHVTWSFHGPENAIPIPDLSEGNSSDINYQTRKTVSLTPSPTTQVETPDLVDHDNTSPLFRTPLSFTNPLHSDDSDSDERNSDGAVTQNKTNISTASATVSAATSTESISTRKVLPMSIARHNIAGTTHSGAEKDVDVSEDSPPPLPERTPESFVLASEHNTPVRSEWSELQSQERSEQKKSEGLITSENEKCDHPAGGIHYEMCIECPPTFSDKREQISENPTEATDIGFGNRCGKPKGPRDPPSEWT

Molecule: paxillin (from UniProt P49023 1-591)
binding [1]: binds

binding [2]: binds
B1: pY410-p130Cas (p130 Crk-associated substrate phosphorylated at tyrosine 410) (protein, UniProt P56945 1-870)
chain: MNHLNVLAKALYDNVAESPDELSFRKGDIMTVLEQDTQGLDGWWLCSLHGRQGIVPGNRLKILVGMYDKKPAGPGPGPPATPAQPQPGLHAPAPPASQYTPMLPNTYQPQPDSVYLVPTPSKAQQGLYQVPGPSPQFQSPPAKQTSTFSKQTPHHPFPSPATDLYQVPPGPGGPAQDIYQVPPSAGMGHDIYQVPPSMDTRSWEGTKPPAKVVVPTRVGQGYVYEAAQPEQDEYDIPRHLLAPGPQDIYDVPPVRGLLPSQYGQEVYDTPPMAVKGPNGRDPLLEVYDVPPSVEKGLPPSNHHAVYDVPPSVSKDVPDGPLLREETYDVPPAFAKAKPFDPARTPLVLAAPPPDSPPAEDVYDVPPPAPDLYDVPPGLRRPGPGTLYDVPRERVLPPEVADGGVVDSGVYAVPPPAEREAPAEGKRLSASSTGSTRSSQSASSLEVAGPGREPLELEVAVEALARLQQGVSATVAHLLDLAGSAGATGSWRSPSEPQEPLVQDLQAAVAAVQSAVHELLEFARSAVGNAAHTSDRALHAKLSRQLQKMEDVHQTLVAHGQALDAGRGGSGATLEDLDRLVACSRAVPEDAKQLASFLHGNASLLFRRTKATAPGPEGGGTLHPNPTDKTSSIQSRPLPSPPKFTSQDSPDGQYENSEGGWMEDYDYVHLQGKEEFEKTQKELLEKGSITRQGKSQLELQQLKQFERLEQEVSRPIDHDLANWTPAQPLAPGRTGGLGPSDRQLLLFYLEQCEANLTTLTNAVDAFFTAVATNQPPKIFVAHSKFVILSAHKLVFIGDTLSRQAKAADVRSQVTHYSNLLCDLLRGIVATTKAAALQYPSPSAAQDMVERVKELGHSTQQFRRVLGQLAAA
modifications: phosphotyrosine at 410

binding [3]: no binding
B2: pY410-p130Cas (p130 Crk-associated substrate phosphorylated at tyrosine 410), P56945 1-870 (protein)
chain: B1 chain
modifications: here or on the partner: phosphotyrosine at 410
